From PubChem BioAssay AID504467 (National Center for Advancing Translational Sciences (NCATS), 2011)
Among all 330,000 compounds or so, about 7,700 (2.3%) were called active. Inconclusive results, whose numbers are uncertain, are shown with a selection of clear calls. The call rests on the fitted dose curve; in most records, active means well fitted inhibition curve with a large enough effect; inconclusive means small, poorly fitted or top-dose-only effect, or effect the other way; inactive means flat fitted curve, though single readings scatter. A potency beside an inconclusive call is a rough fit, not a confirmed value.
Potency means the concentration at half of the fitted maximal effect.

Assay: qHTS screen for small molecules that inhibit ELG1-dependent DNA repair in human embryonic kidney (HEK293T) cells expressing luciferase-tagged ELG1; further: nearly all actives have a fitted effect of over 55% in size
Conditions: HEK293T ELG1-luciferase reporter, luminescence, 16 h, DNA damage induced by 5-fluorouridine; series mostly up to 46.1 µM
How it was run: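 Luminescence from the luciferase reporter, measured 30 min after ONE-Glo reagent at room temperature, was the read-out. Beforehand, 2,000 cells per well were exposed for 16 hr at 37 °C to 5-fluorouridine together with compound or vehicle.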
For `CCOC(=O)c1cnc(-c2ccccc2)nc1N1CC(C)OC(C)C1` (stereo unspecified), the Potency was inconclusive: 18.3 µM [inhibitor, partial curve]. With `COc1ccccc1NC(=O)C1CCCN1S(=O)(=O)c1ccc(Cl)cc1` (stereo unspecified) the Potency was inconclusive: 14.6 µM [inhibitor, partial curve]. For `CCOC(=O)N/N=C\c1ccc(C)s1`, the Potency was inconclusive: 20.6 µM [activator, single point]. In the case of `COc1ccc(CCNC(=O)C2=COCCO2)cc1`, the Potency was inconclusive: 16.4 µM [activator, single point]. With `COc1cccc(/C(C)=N/N=C(\C)c2cccc(OC)c2)c1` the Potency was inconclusive: 13 µM [activator, partial curve]. For `COc1cc2[nH]c(=O)n(CCC(=O)N3CC=C(c4ccccc4)CC3)c(=O)c2cc1OC`, the Potency was “inactive”. In the case of `CCN(c1ccccc1)S(=O)(=O)c1ccc(C(=O)N(CCCN(C)C)c2nc3cc4c(cc3s2)OCO4)cc1`, the Potency was inconclusive: 23.1 µM [activator, partial curve, poor fit]. For `COc1cccc(CNS(=O)(=O)c2ccc3c(c2)CCN3C(=O)C2CC2)c1`, the Potency was inconclusive: 20.6 µM [inhibitor, single point]. In the case of `CC(C)C(NC(=O)c1ccccc1Br)c1ccccc1` (stereo unspecified), the Potency was “inactive”. For `COc1ccc(/C=C(/NC(=O)c2ccccc2)C(=O)NCCN2CCOCC2)cc1OC`, the Potency was “inactive”. For `O=C(COc1cccc2cccnc12)N/N=C/c1ccc(O)cc1`, the Potency was “inactive”. With `COc1ccc(-c2cc(C(F)F)n3ncc(C(=O)N4CCSCC4)c3n2)cc1` the Potency was active: 16.4 µM. With `Cc1ccccc1OCC(=O)N(Cc1ccc(N(C)C)cc1)C1CCS(=O)(=O)C1` (stereo unspecified) the Potency was “inactive”. For `Cc1ccc(N(C(C)C(=O)Nc2cccc(N(C)S(C)(=O)=O)c2)S(C)(=O)=O)cc1` (stereo unspecified), the Potency was inconclusive: 20.6 µM [inhibitor, single point]. With `CC(C)(C)OC(=O)NCCCCCc1cn([C@@H](CO)C(=O)NCCCCCCCCCCC(=O)N2CCN(C(=O)OC(C)(C)C)CC2)nn1` the Potency was active: 3.16 µM. With `CCCCc1nc2n[nH]c(N)c2c2c1CCCC2` the Potency was “inactive”. With `O=C(C[n+]1ccc2ccccc2c1)c1cccc2ccccc12` the Potency was inconclusive: 23.1 µM [inhibitor, partial curve, poor fit]. With `Cc1ccc(C)c2[nH]c(=O)c(C(c3nnnn3CCc3ccccc3)N3CCOCC3)cc12` (stereo unspecified) the Potency was “inactive”. For `CSC(=CC(=O)c1ccc(F)cc1)SC`, the Potency was inconclusive: 23.1 µM [activator, single point]. In the case of `CC(=O)Nc1ccc(NC(=O)COC(=O)c2c3c(nc4ccccc24)CCN(Cc2ccccc2)C3)cc1`, the Potency was active: 2.31 µM. In the case of `O=C(COC(=O)c1cccnc1SC(F)F)NC1CC1`, the Potency was inconclusive: 18.3 µM [activator, partial curve, poor fit]. In the case of `Cn1c(=O)c2[nH]c(-c3ccccc3O)nc2n(C)c1=O`, the Potency was “inactive”. With `CCCC(=O)Nc1ccccc1-c1nnn(CC(=O)Nc2ccc(OC)cc2)n1` the Potency was “inactive”. For `O=C(Nc1ccc(Cl)c(Cl)c1)c1ccccc1NC(=O)C1CC=CCC1C(=O)O` (stereo unspecified), the Potency was inconclusive: 20.6 µM [activator, single point]. With `COc1ccc(N2CCN(c3oc(COc4ccccc4)nc3C#N)CC2)cc1` the Potency was “inactive”. With `COc1cc(-c2nnc(SCC3(c4ccc(Br)cc4)OCCO3)o2)cc(OC)c1OC` the Potency was inconclusive: 13 µM [inhibitor, single point]. In the case of `Cc1cc(C)c(S(=O)(=O)N2CCN(C(=O)C3COc4ccccc4O3)CC2)c(C)c1` (stereo unspecified), the Potency was inconclusive: 29.1 µM [inhibitor, single point]. With `C[C@H](NS(=O)(=O)c1ccc2c(c1)OCCCO2)C(=O)N1CCN(c2ccc(F)cc2)CC1` the Potency was inconclusive: 14.6 µM [inhibitor, partial curve, poor fit]. In the case of `O=[N+]([O-])c1ccc(/C=C/c2ccc3ccccc3n2)cc1`, the Potency was inconclusive: 0.92 µM [activator, partial curve]. For `CCOc1cccc(OCCCOc2ccccc2)c1`, the Potency was inconclusive: 16.4 µM [activator, partial curve, poor fit]. For `COc1ccc(NC(=O)CNC(=O)C2CCCCC2)cc1`, the Potency was inconclusive: 11.6 µM [activator, partial curve]. With `Cc1cc(=O)oc2c1c(C)nn2-c1ccc(C(=O)OC(C)C)cc1` the Potency was inconclusive: 18.4 µM [inhibitor, single point]. For `CCC(CC)C(=O)c1c[nH]c(C(=O)NCCc2ccccn2)c1`, the Potency was “inactive”. With `O=C(c1cc(NC(=O)C23CC4CC(CC(C4)C2)C3)cc(NC(=O)C23CC4CC(CC(C4)C2)C3)c1)N1CCCCC1` the Potency was inconclusive: 2.06 µM [inhibitor, full curve, poor fit]. In the case of `Cc1cccc(N(C)c2ccc3cc(S(=O)(=O)N4CCCC4)ccc3n2)c1`, the Potency was “inactive”. In the case of `CSC1=NC(C)(C)C=C(/C=C/c2ccc(Cl)cc2Cl)N1`, the Potency was “inactive”. With `CCOC(=O)c1c(N)c2cc([N+](=O)[O-])cnc2n1C` the Potency was inconclusive: 29.1 µM [activator, single point]. For `O=C(/C=C/c1ccc2c(c1)OCO2)c1ccc(F)cc1`, the Potency was inconclusive: 9.2 µM [activator, partial curve]. For `CC(=O)N1CC(=O)N=C1SCC(=O)Nc1nc(C)c(-c2ccccc2)s1`, the Potency was inconclusive: 18.3 µM [activator, single point]. In the case of `Clc1ccccc1/C=C/C=N/Nc1nc(N2CCOCC2)nc(N2CCOCC2)n1`, the Potency was inconclusive: 23.1 µM [inhibitor, partial curve]. For `C/C=C(\C)c1nnc(NC(=O)C(C)C)s1`, the Potency was inconclusive: 20.6 µM [activator, single point]. With `CCC(C)[C@H](NC(=O)Nc1ccc(C(C)=O)cc1)C(=O)OC` (stereo partly specified) the Potency was “inactive”. With `CCOc1ccc(NC(=O)c2[nH]c(C)c(C(C)=O)c2C)cc1` the Potency was inconclusive: 18.3 µM [activator, partial curve]. In the case of `COC(=O)c1c(C)[nH]c(C(=O)/C=C/c2ccccc2)c1C`, the Potency was inconclusive: 3.66 µM [activator, partial curve]. In the case of `COc1ccc2[nH]c(=O)c(-c3nnn(-c4ccccc4)n3)cc2c1`, the Potency was inconclusive: 23.1 µM [activator, single point]. With `Cc1ccc(C)c(NC(=S)NC2CC3CCCC(C2)N3CC(C)C)c1` (stereo unspecified) the Potency was “inactive”. For `CCn1cc(C(=O)OCC(=O)Nc2ccccc2OC(F)F)c(=O)c2ccc(C)nc21`, the Potency was “inactive”. In the case of `Cc1cc(C)c(O)c(-c2cc(C(=O)Nc3cccnc3)[nH]n2)c1`, the Potency was active: 20.6 µM. For `Cc1nc([N+](=O)[O-])nn1C12CC3CC(CC(Cl)(C3)C1)C2`, the Potency was “inactive”. With `Brc1ccc(CN2CC[C@H]3C=CCc4cccc(c43)C2)cc1` the Potency was “inactive”. With `Cc1sc(N2CCN(S(=O)(=O)c3ccc4c(c3)NC(=O)CO4)CC2)nc1-c1ccccc1` the Potency was “inactive”. With `COc1ccc(NC(=O)CN2CCC(Cc3ccccc3)CC2)cc1S(=O)(=O)N1CCOCC1` the Potency was inconclusive: 29.1 µM [inhibitor, single point]. For `COCCN(C(=O)C(C)C)c1nnc(-c2ccc(C)cc2)s1`, the Potency was inconclusive: 5.01 µM [activator, single point]. In the case of `OCCCNc1cc(-c2ccccc2)nc2cc(-c3ccc(F)cc3)nn12`, the Potency was inconclusive: 20.6 µM [inhibitor, partial curve]. With `O=C1Nc2ccccc2S/C1=C\C(=O)N1CCCC1` the Potency was inconclusive: 20.6 µM [activator, partial curve]. For `O=C(NCCOc1ccccc1F)c1cc(F)c(F)cc1Cl`, the Potency was inconclusive: 1.84 µM [activator, full curve]. With `CC(C)c1ccc(/C=N/NC(=O)c2cc(-c3cccc([N+](=O)[O-])c3)n[nH]2)cc1` the Potency was inconclusive: 9.2 µM [inhibitor, partial curve]. In the case of `CCc1nnc(NC(=O)CSc2nnc(C3CC3)n2C)s1`, the Potency was “inactive”. With `COc1ccccc1/C=C(/C(=O)OCC(=O)Nc1ccccc1C)c1ccccc1` the Potency was inconclusive: 16.4 µM [inhibitor, single point]. For `O=C1C=CN2CCOCC2C1` (stereo unspecified), the Potency was inconclusive: 18.3 µM [activator, partial curve]. For `COC(=O)c1c(NC(=O)Nc2ccc(Cl)cc2)sc(C)c1C`, the Potency was inconclusive: 29.1 µM [activator, partial curve, poor fit]. For `CCc1ccc(C(=O)Nc2ccc(OC)c(S(=O)(=O)N3CCOCC3)c2)cc1`, the Potency was inconclusive: 23.1 µM [inhibitor, single point]. For `O=C(NCCN1CCCCC1)c1ccc2c(c1)OCCO2`, the Potency was inconclusive: 18.4 µM [activator, partial curve]. For `O=C1c2ccccc2NC(c2cccc([N+](=O)[O-])c2)N1O` (stereo unspecified), the Potency was inconclusive: 29.1 µM [inhibitor, single point]. In the case of `Cc1ccc(C2C(C#N)=C(N)SC(N)=C2C#N)cc1`, the Potency was “inactive”. With `CCCOc1ccc(-c2nc(=S)[nH][nH]2)cc1` the Potency was inconclusive: 11.6 µM [activator, partial curve]. In the case of `CCCOc1ccc(N2C(=O)CC(N(O)c3ccccc3)C2=O)cc1` (stereo unspecified), the Potency was inconclusive: 6.51 µM [activator, partial curve]. With `CC(C)Sc1ncnc2c1oc1ccccc12` the Potency was inconclusive: 14.6 µM [activator, partial curve]. For `CCOc1cc(N2CCOCC2)c(OCC)cc1NC(=O)c1ccc(OCc2c(C)noc2C)c(OC)c1`, the Potency was active: 5.8 µM. With `Cc1noc(C)c1C(=O)Nc1nc2ccccc2s1` the Potency was inconclusive: 20.6 µM [activator, partial curve]. In the case of `Clc1cccc(Cl)c1/C=N/Nc1c(Cl)cncc1Cl`, the Potency was inconclusive: 6.51 µM [inhibitor, partial curve].
